Assay in all cases: co-IP; 100 ug nuclear extract of ES cells, 150 mM final NaCl, Protein A or G Dynabeads with antibodies (Flag, Kap1, Atm phospho S1981, Atr, Parp1, Top2β, Xrcc1); beads washed three times in buffer B; Western blot
Assay [1] has as its target Kap1 (mouse (endogenous in ES cells)) (UniProt Q62318).
For assay [2], the target named is Parp1 (mouse (endogenous in ES cells)) (UniProt P11103).
Assay [3] deals with single-stranded repair factor Xrcc1 (mouse (endogenous in ES cells)) (UniProt Q60596).
In assay [4] the target is topoisomerase 2β (Top2β) (mouse (endogenous in ES cells)) (UniProt Q64511).

Amino acid sequences for entries named in this document (tags omitted).
UniProt Q62318: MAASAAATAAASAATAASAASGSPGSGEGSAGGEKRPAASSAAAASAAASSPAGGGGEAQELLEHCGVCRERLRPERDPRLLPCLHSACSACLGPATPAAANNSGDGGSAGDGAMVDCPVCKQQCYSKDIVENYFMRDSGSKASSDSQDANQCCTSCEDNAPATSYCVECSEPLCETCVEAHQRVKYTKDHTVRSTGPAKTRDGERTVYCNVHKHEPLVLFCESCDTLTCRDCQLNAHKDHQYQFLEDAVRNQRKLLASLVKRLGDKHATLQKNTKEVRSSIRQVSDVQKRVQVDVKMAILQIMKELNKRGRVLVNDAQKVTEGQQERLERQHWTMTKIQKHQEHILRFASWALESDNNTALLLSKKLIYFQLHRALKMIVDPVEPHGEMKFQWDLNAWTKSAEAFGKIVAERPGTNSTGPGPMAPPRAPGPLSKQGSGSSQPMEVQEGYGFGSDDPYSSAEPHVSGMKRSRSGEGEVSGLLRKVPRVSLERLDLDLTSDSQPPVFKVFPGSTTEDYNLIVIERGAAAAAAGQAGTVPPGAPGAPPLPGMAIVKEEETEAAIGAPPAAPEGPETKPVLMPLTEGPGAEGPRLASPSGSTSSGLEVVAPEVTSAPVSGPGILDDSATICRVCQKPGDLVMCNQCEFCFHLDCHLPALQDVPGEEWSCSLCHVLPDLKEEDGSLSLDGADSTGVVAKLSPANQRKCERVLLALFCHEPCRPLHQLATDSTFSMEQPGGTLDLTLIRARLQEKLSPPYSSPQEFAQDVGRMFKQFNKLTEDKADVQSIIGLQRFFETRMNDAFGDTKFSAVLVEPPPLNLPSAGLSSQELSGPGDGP
UniProt P11103: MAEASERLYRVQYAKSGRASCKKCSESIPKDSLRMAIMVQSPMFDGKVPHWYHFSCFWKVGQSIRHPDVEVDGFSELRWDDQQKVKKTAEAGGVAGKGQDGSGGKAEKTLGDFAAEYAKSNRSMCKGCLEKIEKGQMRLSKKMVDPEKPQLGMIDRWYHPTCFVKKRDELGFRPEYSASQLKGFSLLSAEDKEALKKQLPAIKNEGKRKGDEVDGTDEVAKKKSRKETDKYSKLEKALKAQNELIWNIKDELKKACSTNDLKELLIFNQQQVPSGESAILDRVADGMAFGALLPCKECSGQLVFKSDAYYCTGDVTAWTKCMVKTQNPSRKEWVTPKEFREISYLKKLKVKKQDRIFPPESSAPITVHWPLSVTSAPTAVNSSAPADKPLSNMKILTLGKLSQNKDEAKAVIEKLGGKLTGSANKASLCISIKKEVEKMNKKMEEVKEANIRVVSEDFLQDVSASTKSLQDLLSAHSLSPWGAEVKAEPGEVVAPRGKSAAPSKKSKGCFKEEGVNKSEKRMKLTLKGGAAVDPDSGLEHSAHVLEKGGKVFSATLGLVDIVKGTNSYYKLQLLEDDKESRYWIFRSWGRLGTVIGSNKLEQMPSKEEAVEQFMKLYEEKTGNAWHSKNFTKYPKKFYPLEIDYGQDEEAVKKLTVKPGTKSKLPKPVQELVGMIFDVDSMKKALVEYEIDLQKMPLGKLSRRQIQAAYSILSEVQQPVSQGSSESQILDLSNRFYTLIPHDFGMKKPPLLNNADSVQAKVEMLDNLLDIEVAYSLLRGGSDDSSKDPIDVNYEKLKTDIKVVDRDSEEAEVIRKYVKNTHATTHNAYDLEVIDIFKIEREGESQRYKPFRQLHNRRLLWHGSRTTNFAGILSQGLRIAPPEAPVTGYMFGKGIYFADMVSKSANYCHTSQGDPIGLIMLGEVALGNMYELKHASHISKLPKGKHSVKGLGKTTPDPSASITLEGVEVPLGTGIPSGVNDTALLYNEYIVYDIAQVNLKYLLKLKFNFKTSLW
UniProt Q60596: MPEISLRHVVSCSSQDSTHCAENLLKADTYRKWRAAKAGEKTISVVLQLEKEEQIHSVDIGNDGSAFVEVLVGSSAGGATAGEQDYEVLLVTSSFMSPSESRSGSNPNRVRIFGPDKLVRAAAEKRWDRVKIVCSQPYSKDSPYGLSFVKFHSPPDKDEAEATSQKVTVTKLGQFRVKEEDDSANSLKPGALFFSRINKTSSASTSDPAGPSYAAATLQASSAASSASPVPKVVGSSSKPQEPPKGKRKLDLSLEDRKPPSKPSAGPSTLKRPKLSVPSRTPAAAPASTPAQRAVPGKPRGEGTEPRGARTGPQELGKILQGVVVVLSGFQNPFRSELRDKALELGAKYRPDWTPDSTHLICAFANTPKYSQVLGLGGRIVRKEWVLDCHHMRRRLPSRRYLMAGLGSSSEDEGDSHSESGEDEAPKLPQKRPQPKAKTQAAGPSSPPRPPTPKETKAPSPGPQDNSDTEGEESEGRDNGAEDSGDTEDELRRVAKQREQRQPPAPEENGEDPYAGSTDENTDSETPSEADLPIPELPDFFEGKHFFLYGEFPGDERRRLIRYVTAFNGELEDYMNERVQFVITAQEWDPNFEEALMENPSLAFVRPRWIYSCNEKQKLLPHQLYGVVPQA
UniProt Q64511: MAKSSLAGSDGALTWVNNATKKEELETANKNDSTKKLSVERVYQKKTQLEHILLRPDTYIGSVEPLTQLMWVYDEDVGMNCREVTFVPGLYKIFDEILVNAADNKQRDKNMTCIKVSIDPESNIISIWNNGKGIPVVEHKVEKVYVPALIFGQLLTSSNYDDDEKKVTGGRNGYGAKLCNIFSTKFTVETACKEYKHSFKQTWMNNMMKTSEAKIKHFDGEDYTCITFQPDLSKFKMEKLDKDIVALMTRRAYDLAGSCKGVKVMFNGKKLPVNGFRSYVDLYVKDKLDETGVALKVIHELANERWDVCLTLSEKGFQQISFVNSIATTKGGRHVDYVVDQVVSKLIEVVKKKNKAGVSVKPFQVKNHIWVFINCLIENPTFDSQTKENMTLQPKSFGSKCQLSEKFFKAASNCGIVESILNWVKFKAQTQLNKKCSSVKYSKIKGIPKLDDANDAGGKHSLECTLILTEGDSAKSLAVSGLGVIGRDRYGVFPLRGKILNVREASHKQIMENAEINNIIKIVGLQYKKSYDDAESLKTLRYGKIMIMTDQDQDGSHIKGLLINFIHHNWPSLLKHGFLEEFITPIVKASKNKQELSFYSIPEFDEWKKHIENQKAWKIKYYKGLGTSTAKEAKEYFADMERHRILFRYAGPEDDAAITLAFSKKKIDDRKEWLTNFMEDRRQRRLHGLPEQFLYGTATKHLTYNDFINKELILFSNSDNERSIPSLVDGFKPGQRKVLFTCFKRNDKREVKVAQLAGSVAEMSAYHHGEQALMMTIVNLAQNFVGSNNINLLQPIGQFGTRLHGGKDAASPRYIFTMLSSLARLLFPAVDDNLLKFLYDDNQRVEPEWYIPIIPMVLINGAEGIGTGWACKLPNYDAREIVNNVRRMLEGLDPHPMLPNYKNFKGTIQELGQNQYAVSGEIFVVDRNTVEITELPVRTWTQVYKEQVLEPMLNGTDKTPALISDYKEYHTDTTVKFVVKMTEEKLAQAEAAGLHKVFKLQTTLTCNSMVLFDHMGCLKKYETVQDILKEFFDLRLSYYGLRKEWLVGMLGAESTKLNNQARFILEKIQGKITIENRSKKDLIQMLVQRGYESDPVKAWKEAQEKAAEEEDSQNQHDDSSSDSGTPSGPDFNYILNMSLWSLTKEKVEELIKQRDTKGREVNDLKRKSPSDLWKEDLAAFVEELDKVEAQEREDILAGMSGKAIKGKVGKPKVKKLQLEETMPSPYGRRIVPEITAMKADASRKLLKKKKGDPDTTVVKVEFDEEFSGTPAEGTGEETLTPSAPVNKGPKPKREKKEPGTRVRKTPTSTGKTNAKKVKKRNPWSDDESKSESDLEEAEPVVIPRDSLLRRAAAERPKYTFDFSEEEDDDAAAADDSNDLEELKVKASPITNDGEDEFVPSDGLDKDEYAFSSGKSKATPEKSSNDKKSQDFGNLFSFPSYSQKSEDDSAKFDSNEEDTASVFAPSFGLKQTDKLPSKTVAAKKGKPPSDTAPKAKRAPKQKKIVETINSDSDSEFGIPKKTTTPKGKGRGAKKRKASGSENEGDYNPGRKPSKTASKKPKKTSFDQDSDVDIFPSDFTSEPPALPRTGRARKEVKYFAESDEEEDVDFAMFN
UniProt P40201: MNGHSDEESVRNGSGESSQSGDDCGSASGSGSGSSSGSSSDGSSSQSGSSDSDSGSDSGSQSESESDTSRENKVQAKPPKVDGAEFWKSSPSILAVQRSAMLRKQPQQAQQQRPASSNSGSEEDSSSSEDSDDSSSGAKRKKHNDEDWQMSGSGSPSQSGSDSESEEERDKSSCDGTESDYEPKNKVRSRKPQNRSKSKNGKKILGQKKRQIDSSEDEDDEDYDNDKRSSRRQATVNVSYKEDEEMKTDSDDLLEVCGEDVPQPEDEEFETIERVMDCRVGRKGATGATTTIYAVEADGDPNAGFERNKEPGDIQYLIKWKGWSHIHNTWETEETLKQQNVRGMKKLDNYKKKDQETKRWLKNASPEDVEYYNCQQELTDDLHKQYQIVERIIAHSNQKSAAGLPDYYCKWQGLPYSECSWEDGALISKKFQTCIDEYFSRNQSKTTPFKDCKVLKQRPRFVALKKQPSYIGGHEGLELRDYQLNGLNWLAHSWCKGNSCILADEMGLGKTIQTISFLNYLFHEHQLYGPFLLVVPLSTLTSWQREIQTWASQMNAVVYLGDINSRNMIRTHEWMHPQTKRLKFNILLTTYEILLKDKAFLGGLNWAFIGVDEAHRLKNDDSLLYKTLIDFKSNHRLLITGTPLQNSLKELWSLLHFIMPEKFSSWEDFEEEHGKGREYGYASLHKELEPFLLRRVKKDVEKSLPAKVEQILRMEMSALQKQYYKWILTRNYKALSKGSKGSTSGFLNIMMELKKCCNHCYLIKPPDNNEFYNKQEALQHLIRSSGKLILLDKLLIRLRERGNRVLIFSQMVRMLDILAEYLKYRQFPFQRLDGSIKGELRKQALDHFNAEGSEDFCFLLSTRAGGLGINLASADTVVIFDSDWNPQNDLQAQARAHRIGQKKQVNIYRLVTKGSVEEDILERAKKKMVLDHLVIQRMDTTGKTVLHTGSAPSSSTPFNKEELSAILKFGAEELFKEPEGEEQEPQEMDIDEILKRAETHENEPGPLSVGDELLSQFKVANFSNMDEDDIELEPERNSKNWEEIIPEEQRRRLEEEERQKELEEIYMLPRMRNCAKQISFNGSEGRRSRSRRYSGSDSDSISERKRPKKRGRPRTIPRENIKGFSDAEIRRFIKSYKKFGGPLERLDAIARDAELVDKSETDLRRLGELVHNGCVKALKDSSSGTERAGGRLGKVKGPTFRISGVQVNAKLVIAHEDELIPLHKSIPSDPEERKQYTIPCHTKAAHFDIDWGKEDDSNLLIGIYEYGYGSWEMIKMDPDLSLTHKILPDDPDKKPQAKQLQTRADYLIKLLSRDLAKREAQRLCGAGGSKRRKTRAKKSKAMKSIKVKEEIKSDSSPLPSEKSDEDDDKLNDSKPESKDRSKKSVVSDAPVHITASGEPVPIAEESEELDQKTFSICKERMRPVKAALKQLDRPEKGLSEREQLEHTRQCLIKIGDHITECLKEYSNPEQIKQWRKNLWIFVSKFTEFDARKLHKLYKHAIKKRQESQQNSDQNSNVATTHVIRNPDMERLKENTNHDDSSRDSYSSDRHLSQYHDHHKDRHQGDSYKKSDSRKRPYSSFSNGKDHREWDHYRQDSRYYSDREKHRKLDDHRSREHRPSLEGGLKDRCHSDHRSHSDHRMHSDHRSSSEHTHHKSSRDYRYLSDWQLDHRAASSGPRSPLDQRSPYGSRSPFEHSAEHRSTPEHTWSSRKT

These are yes or no findings as the source states them, for the method shown. In cells and extracts the contact can be indirect. Some entries that bind do so weakly or less than the wild type.

With “Chd1 (endogenous, wild-type ES cells) (from UniProt P40201 1-1711) (enzyme)”, the binding entry in assay [1] was “binds”; in assay [2], “binds”; in assay [3], “no binding”; in assay [4], “binds”.

Source of the values: paper PMC8357957.
